Measurements from paper doi:10.1101/2021.03.08.433705.
These are yes or no findings as the source states them, for the method shown. Binding seen in cells or lysates may run through a third protein. Some entries that bind do so weakly or less than the wild type.

Chains of the proteins cited; added tags and fusions are not shown. Lines headed by an entry give the natural chain unless they say otherwise; changes in a name come on top. Residues count along the entry.
UniProt Q9BSM1: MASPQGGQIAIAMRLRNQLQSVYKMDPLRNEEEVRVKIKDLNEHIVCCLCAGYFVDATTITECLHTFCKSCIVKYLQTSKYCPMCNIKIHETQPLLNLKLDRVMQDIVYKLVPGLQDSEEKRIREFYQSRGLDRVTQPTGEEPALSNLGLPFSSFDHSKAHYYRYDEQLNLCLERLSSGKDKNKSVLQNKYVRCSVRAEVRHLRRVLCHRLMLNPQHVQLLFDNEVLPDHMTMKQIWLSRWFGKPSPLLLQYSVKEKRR
UniProt Q6W2J9: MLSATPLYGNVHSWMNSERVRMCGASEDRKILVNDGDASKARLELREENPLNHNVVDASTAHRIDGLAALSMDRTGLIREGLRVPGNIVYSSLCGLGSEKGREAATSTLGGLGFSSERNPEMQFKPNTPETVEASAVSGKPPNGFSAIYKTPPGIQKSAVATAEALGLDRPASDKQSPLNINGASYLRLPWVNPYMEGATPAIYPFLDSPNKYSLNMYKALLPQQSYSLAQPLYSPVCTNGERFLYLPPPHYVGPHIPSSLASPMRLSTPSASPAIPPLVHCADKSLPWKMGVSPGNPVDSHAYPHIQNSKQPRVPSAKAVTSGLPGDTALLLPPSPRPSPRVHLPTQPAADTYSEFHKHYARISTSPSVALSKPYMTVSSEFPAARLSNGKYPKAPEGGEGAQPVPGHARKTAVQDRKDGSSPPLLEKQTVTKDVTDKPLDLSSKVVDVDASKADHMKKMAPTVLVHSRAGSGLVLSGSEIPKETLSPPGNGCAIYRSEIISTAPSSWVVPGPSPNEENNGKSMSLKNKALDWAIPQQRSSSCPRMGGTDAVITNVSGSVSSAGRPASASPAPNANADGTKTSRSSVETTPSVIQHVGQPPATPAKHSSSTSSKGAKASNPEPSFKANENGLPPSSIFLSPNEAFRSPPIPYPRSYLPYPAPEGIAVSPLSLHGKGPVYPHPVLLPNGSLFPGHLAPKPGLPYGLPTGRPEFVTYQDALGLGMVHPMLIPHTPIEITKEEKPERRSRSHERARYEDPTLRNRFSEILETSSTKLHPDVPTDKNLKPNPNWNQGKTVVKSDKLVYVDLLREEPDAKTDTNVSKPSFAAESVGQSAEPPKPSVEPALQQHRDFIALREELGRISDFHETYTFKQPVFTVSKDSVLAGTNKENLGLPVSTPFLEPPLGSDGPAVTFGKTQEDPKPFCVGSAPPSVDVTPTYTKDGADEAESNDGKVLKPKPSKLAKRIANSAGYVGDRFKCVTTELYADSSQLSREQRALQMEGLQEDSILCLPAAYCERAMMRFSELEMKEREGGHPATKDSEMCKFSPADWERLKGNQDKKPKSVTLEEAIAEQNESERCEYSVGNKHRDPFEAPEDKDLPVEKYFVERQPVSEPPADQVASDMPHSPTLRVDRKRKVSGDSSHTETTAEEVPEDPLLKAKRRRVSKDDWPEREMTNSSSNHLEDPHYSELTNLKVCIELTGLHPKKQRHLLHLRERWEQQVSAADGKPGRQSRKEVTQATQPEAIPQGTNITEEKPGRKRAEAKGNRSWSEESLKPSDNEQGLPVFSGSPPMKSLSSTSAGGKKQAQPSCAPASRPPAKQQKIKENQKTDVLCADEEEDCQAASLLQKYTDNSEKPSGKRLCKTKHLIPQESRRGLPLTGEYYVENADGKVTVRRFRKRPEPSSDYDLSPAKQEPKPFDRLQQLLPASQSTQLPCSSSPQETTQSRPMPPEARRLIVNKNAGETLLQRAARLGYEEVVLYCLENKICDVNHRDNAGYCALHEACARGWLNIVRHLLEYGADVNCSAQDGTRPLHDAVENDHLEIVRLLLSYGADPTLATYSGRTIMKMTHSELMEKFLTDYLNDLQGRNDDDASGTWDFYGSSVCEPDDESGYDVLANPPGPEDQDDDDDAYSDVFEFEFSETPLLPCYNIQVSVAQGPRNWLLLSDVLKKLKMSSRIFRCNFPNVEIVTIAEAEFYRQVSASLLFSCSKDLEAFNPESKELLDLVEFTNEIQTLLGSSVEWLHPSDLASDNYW
BCOR HA-PUFD (1635-1755aa): residues 1635-1755 of Q6W2J9
UniProt Q93009: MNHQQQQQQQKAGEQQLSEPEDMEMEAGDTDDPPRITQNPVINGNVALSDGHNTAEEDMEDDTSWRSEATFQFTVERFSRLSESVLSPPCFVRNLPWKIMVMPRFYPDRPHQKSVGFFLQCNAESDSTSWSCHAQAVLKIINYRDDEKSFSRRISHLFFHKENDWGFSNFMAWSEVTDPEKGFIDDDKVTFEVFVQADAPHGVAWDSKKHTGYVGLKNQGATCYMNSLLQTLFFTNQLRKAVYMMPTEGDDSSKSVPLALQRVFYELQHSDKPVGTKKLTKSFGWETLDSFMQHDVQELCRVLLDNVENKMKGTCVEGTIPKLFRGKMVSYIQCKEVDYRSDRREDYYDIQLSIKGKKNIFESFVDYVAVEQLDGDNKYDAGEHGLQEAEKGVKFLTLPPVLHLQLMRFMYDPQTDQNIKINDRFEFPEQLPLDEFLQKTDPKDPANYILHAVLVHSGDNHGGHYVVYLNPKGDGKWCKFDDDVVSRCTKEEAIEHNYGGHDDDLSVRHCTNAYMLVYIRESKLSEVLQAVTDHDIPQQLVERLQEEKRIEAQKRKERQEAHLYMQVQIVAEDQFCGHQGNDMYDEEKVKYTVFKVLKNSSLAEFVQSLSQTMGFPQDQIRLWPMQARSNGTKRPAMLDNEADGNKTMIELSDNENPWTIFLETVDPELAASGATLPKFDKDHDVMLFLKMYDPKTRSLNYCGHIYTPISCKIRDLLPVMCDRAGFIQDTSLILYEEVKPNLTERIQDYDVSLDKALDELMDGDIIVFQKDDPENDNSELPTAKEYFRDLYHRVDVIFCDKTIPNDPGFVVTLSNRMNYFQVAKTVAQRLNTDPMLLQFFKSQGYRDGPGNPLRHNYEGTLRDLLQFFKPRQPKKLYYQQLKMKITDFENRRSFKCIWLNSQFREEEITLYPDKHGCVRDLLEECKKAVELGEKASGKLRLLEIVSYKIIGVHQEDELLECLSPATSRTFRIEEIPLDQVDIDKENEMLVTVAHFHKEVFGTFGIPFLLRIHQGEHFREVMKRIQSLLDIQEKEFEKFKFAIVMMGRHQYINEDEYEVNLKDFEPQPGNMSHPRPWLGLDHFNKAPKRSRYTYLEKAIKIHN

T1: KDM2B (endogenous) (human (endogenous in K562, MOLM14)) (UniProt Q8NHM5)
T1 sequence: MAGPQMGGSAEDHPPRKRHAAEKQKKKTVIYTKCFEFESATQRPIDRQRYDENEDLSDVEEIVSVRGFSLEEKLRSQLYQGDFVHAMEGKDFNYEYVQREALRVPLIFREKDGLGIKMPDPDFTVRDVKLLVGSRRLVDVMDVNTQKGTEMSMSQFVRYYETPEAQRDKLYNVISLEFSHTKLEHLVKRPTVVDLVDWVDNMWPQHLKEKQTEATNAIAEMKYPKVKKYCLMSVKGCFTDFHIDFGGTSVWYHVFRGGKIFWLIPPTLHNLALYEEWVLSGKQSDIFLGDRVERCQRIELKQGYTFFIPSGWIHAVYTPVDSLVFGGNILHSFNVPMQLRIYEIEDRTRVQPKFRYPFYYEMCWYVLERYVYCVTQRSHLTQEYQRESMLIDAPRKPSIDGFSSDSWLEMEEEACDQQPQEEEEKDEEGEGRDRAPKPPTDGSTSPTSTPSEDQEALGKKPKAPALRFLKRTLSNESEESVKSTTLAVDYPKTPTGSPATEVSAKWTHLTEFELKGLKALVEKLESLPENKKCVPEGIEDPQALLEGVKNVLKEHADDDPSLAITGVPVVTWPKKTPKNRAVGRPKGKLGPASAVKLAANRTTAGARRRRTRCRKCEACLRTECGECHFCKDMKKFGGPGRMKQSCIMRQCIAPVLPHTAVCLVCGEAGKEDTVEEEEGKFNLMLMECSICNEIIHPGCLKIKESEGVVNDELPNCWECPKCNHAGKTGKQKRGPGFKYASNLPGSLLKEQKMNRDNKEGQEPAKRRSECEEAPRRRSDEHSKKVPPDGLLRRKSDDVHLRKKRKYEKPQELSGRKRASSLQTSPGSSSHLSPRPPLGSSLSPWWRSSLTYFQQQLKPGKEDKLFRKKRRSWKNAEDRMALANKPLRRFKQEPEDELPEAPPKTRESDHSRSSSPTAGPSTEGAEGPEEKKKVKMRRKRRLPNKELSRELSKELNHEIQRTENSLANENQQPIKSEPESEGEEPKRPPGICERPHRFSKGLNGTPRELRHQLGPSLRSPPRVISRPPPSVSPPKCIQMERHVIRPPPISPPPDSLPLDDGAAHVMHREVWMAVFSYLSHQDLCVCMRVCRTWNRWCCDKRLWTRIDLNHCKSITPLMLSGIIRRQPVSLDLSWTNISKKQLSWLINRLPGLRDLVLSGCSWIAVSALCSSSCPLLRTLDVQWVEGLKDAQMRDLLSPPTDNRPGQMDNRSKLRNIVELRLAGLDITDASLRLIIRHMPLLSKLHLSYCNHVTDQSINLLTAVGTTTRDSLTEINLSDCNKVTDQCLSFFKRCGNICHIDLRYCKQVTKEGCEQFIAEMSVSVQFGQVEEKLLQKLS


Tests used:
Experiment in all cases: co-IP
[1] = target: PCGF1 (endogenous) (human (endogenous in K562, MOLM14)) (UniProt Q9BSM1)
[2] = target: T1, KDM2B (endogenous) (human (endogenous in K562, MOLM14))
[3] = target: BCOR HA-CT (1462-1755aa) (human) (UniProt Q6W2J9)
[4] = target: BCOR HA-PUFD (1635-1755aa) (human) (UniProt Q6W2J9)
[5] = target: BCOR (endogenous wild type, K562) (human (endogenous in K562)) (UniProt Q6W2J9)

| Molecule | binding [1] | binding [2] | binding [3] | binding [4] | binding [5] |
| --- | --- | --- | --- | --- | --- |
| BCOR (endogenous wild type, K562) (from UniProt Q6W2J9 1-1755) | binds | binds |  |  |  |
| PCGF1 (endogenous) (from UniProt Q9BSM1 1-259) |  |  | binds | binds | binds |
| KDM2B (endogenous) (protein, UniProt Q8NHM5 1-1336) MAGPQMGGSAEDHPPRKRHAAEKQKKKTVIYTKCFEFESATQRPIDRQRYDENEDLSDVEEIVSVRGFSLEEKLRSQLYQGDFVHAMEGKDFNYEYVQREALRVPLIFREKDGLGIKMPDPDFTVRDVKLLVGSRRLVDVMDVNTQKGTEMSMSQFVRYYETPEAQRDKLYNVISLEFSHTKLEHLVKRPTVVDLVDWVDNMWPQHLKEKQTEATNAIAEMKYPKVKKYCLMSVKGCFTDFHIDFGGTSVWYHVFRGGKIFWLIPPTLHNLALYEEWVLSGKQSDIFLGDRVERCQRIELKQGYTFFIPSGWIHAVYTPVDSLVFGGNILHSFNVPMQLRIYEIEDRTRVQPKFRYPFYYEMCWYVLERYVYCVTQRSHLTQEYQRESMLIDAPRKPSIDGFSSDSWLEMEEEACDQQPQEEEEKDEEGEGRDRAPKPPTDGSTSPTSTPSEDQEALGKKPKAPALRFLKRTLSNESEESVKSTTLAVDYPKTPTGSPATEVSAKWTHLTEFELKGLKALVEKLESLPENKKCVPEGIEDPQALLEGVKNVLKEHADDDPSLAITGVPVVTWPKKTPKNRAVGRPKGKLGPASAVKLAANRTTAGARRRRTRCRKCEACLRTECGECHFCKDMKKFGGPGRMKQSCIMRQCIAPVLPHTAVCLVCGEAGKEDTVEEEEGKFNLMLMECSICNEIIHPGCLKIKESEGVVNDELPNCWECPKCNHAGKTGKQKRGPGFKYASNLPGSLLKEQKMNRDNKEGQEPAKRRSECEEAPRRRSDEHSKKVPPDGLLRRKSDDVHLRKKRKYEKPQELSGRKRASSLQTSPGSSSHLSPRPPLGSSLSPWWRSSLTYFQQQLKPGKEDKLFRKKRRSWKNAEDRMALANKPLRRFKQEPEDELPEAPPKTRESDHSRSSSPTAGPSTEGAEGPEEKKKVKMRRKRRLPNKELSRELSKELNHEIQRTENSLANENQQPIKSEPESEGEEPKRPPGICERPHRFSKGLNGTPRELRHQLGPSLRSPPRVISRPPPSVSPPKCIQMERHVIRPPPISPPPDSLPLDDGAAHVMHREVWMAVFSYLSHQDLCVCMRVCRTWNRWCCDKRLWTRIDLNHCKSITPLMLSGIIRRQPVSLDLSWTNISKKQLSWLINRLPGLRDLVLSGCSWIAVSALCSSSCPLLRTLDVQWVEGLKDAQMRDLLSPPTDNRPGQMDNRSKLRNIVELRLAGLDITDASLRLIIRHMPLLSKLHLSYCNHVTDQSINLLTAVGTTTRDSLTEINLSDCNKVTDQCLSFFKRCGNICHIDLRYCKQVTKEGCEQFIAEMSVSVQFGQVEEKLLQKLS |  |  | binds |  | binds |

The next lines start with the values.

| binding [1] | binding [2] | binding [3] | binding [4] | binding [5] | Molecule |
| --- | --- | --- | --- | --- | --- |
|  | binds |  |  |  | BCOR HA-CT (1462-1755aa) (from UniProt Q6W2J9 1462-1755) (domain or fragment) |
|  |  |  |  | binds | USP7 (endogenous) (from UniProt Q93009 1-1102) |
